Data published in patent US20030148264A1, “Phage displayed PDZ domain ligands” (GENENTECH, INC., priority 2001, published 2003).
Not every detail of the peptide structures is certain; ends, links or a residue may be inferred. Where a SMILES comes first, the peptide text is derived from it.

Sequences of proteins named here, by UniProt entry; tags and fusion partners are left off. Residues count along the entry.
UniProt Q96RT1, 1258-1412: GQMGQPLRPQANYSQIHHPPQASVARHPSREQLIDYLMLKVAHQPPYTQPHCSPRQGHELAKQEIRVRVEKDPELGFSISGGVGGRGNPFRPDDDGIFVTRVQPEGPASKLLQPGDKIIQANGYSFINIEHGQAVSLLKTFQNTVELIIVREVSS

Target: ERBIN PDZ domain (Homo sapiens, UniProt Q96RT1)
Experiment: Competition ELISA, ERBIN PDZ-GST binding to immobilized biotinylated peptide
Design: made in house; host or cells: E. coli
Experimental: Binding affinities of the peptides for the ERBIN PDZ domain were determined as IC50 values using competition ELISAs. […] Assay plates were prepared by coating Maxisorp plates overnight at 4° C. with 65 μl of a 2 μg/ml solution of neutravidin in PBS. The plates were then blocked through addition of 65 μl of a 1% solution of bovine serum albumin (BSA) in PBS for 1 hour at room temperature, then washed 10 times with PBS containing 0.05% Tween-20. 65 μl of the amino-terminally biotinylated peptide PDZ 501 (TGWETWV; SEQ ID NO:222) was then added at a concentration of 100 nM in PBS with 0.5% BSA and 0.05% Tween-20 and incubated for 1 hour at room temperature. Simultaneously, binding reactions consisting of serial dilutions of the test compounds in PBS with 0.5% BSA and 0.05% Tween-20 containing 2 μg/ml ERBIN PDZ-GST fusion protein were incubated for 1 hour at room temperature. The plate coated with the immobilized peptide was again washed 10 times before 65 μl of each binding reaction was added to a well and incubated for 15 minutes at room temperature. The plates were again washed 10 times before being developed by incubating for 30 minutes with a 1:1000 dilution of anti-mouse HRP conjugated antibody and a 1:2000 dilution of a mouse anti-GST antibody in PBS with 0.5% BSA and 0.05% Tween-20. The plates were washed 10 times, then incubated with 100 μl HRP substrate for 5 minutes and the color developed through addition of 100 μl of 1 M H3PO4. The plates were read at 450 nm and the absorption fit to a binding curve using a least squares fit.
Binding affinities of the peptides for the ERBIN PDZ domain were determined as IC50 values using competition ELISAs. […] Assay plates were prepared by coating microwell plates overnight with neutravidin. The plates were then blocked through addition of BSA, and then amino-terminally biotinylated WETWV (SEQ ID NO:225) was then bound to the plates. […] The plates were then developed with HRP substrate and H3PO4, and then read at 450 nm. […] Thus the ability of the various peptides to inhibit ERBIN PDZ domain from binding its cognate was measured. […]

[1] = ERBIN peptide truncations with N-terminal acylation

For CC(=O)N[C@H](C(=O)N[C@@H](Cc1c[nH]c2ccccc12)C(=O)N[C@H](C(=O)O)C(C)C)[C@@H](C)O [Ac-TWY] (Ac-Thr-Trp-Val-OH; C-terminus assumed), the IC50 [1] was 77.4 µM and the “fold less potent than Ac-GWETWV” value [1] was 81.5 fold.
For CC(C)[C@H](NC(=O)[C@@H](N)CC(=O)O)C(=O)N1CCC[C@H]1C(=O)N[C@@H](C)C(=O)O [DVPA, reference compound] (H-DVPA-OH), the IC50 (ERBIN, in the presence of competitor PDZ 501 (TGWETWV)) was > 100 µM.
